To fix the notation:
B1: il2ra_site1_3nfp_normal_mot_HHH_b1_02637_af2_000000026_0001_1_18_H_._HHH_b2_01529_af2_0001_0000200007_0000001_0_af2pred_0001_af2pred_1 (protein)
chain: SSSSSEELEEALRAFEEAYELYEKGDEEEAKKVLEEAIKIAEELGDENLVRFLRKALELLRSSSS
B2: il2ra_site2_3nfp_normal_mot_HHH_b1_06589_000000230_0001_37_50_H_._HHH_b2_06317_0001_0000200028_0000001_1 (protein)
chain: SSSDETKERVKELLEEVEELIRQGNEEEAQRVLAEATQVAYEGRDSEAYMLVAELAFELYQSSSS
B3: il2ra_site2_2erj_normal_mot_HHH_b1_02968_000000142_0001_22_39_H_._HHH_b1_03253_0001_0000600016_0000001_0_af2pred_0001_1_af2pred_swapped (protein)
chain: SSSSSSSAEEEVERLLEEAKHIPNLREALELAQEADEIASENNNDELIELVDRVAKELSSSSSSS
B4: il2ra_site1_3nfp_normal_mot_ems_3hC_775_af2_000000149_0001_42_60_H_._HEEHE_2142_af2_0001_0000300007_0000001_0 (protein)
chain: DEEEEIRRAVELAAKLARIPEVEVSESNGQFHVEIRGDDVQARHVSRLIEQAAKAFGIDVEVEYE
B5: il2ra_site1_3nfp_normal_mot_HHH_b1_00232_af2_000000283_0001_22_38_H_._HHH_b2_06365_0001_0000100005_0000001_0_af2pred_0001_af2pred_swapped (protein)
chain: SSSSSSSAVEQLLRHAQEAYENGNEELARRLLEKFLEALKKANIEDDFEEVEELLKELSSSSSSS
B6: il2ra_site2_2erj_sap_17_mot_HHH_b1_02566_000000063_0001_42_58_H_._HHH_b1_03002_0002_0000200009_0000001_0_0001_af2pred_0001_1_af2pred_swapped (protein)
chain: SSSSSSSVEERVEELLERAKHIRDKREALELAQEASELADEHDDPELWEEILRVARELSSSSSSS
B7: il2ra_site1_1z92_normal_mot_HHH_b1_07828_af2_000000107_0001_18_34_H_._HHH_b1_01691_0001_0000200014_0000001_0_af2pred_0001_af2pred (protein)
chain: SSSSSSDEHERIFEEAHEFAKELNNPALEWAVEALLRRYRRSGDERLREDLEKALENLSSSSSSS
B8: il2ra_site1_3nfp_sap_17_mot_HHH_b1_01159_af2_000000107_0001_1_20_H_._HHH_b1_00510_0001_0000100012_0000001_0_0001 (protein)
chain: DEEEIRREIEELLEEDPQEAMQFAMKLAHEAMRNNDPELLRVVLEALLKVTGDPSVKKLLEVARR
B9: il2ra_site2_3nfp_sap_15_mot_HHH_b1_06577_af2_000000152_0001_20_36_H_._HHH_b1_06279_af2_0001_0000100009_0000001_1_0001 (protein)
chain: SSSSSEVEEYLEAAVALLEEALEQGDEEAARRHLELVKLAAEDAGDEEIKERLEEIEEELSSSSS
B10: il2ra_site2_2erj_normal_mot_HHH_b2_05633_000000270_0001_38_52_H_._HHH_b1_00328_0001_0000100005_0000001_0 (protein)
chain: SSSSDEEYRRVAELLAEAQELALEGNPEEAEKLLEEARQIAEEANSEALERYVEFAHRDISSSSS
B11: il2ra_site1_3nfp_normal_mot_cc4219192d8ccd35c40e7b68f9a57604_0001_af2_000000124_0001_16_32_H_._HHH_b2_07250_0001_0000300003_0000001_0_af2pred_0001_af2pred_1_swa … (protein)
chain: SSSSSALEWVEEKAEEAFENNDKFELRALYKLLREALERHGDPEAKEVLEKVEELLRELQSSSSS
B12: il2ra_site1_1z92_sap_16_mot_96c1ddac3a320f3fb7c3d0e7ac756063_0001_000000061_0001_1_12_H_._HHH_b1_02840_0001_0000300034_0000001_0_0001 (protein)
chain: SSSSSSEERSVRIVVRVLVELAGLSEEQEEELEELAKRLLEEGLSFLEISKLLDELAVRLSSSSS
B13: il2ra_site1_2b5i_normal_mot_HHH_b2_04910_000000118_0001_1_19_H_._HHH_b2_07035_af2_0001_0000200008_0000001_0_af2pred_dldesign_0_af2pred (protein)
chain: SSSSSSSAALELFLAANKAYQAGKEEEAKRLLEEALRLAREAGATSLVKMIESALKSLSSSSSSS
B14: il2ra_site2_3nfp_sap_14_mot_HHH_b1_04032_000000208_0001_43_56_H_._67c3a9dcc8d22c6e038fb00e67f47ca1_0001_af2_0001_0000100001_0000001_0_0001 (protein)
chain: SEEEQERIEELEEKLKKAVERNDKELIEEILAEIAHFVAEFSDDPEAFRLYSLAAEALLAVAQRS
B15: il2ra_site1_1z92_sap_17_mot_HHH_b1_00661_af2_000000033_0001_38_50_H_._HHH_b1_06922_af2_0001_0000200008_0000001_0_0001_af2pred_dldesign_0_af2pred (protein)
chain: SPRDEALARAAELADAPPEDLRRLLDAARRAAGGDPAAARARLTRWLTKLGVPAEAIELAAECLP
B16: il2ra_site2_2erj_normal_mot_b4a479b5f6325cf1502d73870e4e4edc_0001_000000131_0001_18_32_H_._HEEHE_0898_0001_0000100002_0000001_0_af2pred_0001_af2pred (protein)
chain: SDEEDVELLIRIHAERLGVPSVEVEVHNGELTVTFEGDTRSARRASELAEWIAKLLNIKVTIEVE
B17: il2ra_site2_3nfp_sap_22_mot_HHH_b2_04319_af2_000000252_0001_42_56_H_._HHH_b2_01596_af2_0001_0000500023_0000001_0_0001_af2pred_0001_1_af2pred_swapped (protein)
chain: SSSSSSSEEEVERLLEEAKRIEDEEEVREILLKAAQIAYELKDHELFALVLRVYEELLSSSSSSS
B18: il2ra_site1_2b5i_sap_11_mot_HHH_b2_01684_af2_000000128_0001_1_17_H_._81c47014b626a55087c6b8b4ed7fd288_0001_1_af2_0001_0000100001_0000001_0_0001_af2pred_dldesign … (protein)
chain: SSSSSSPIEEAIAEARRLAAAGRRREALETLEKAYKLAGANNDEETEEKIEELAKELSASSSSSS
B19: il2ra_site1_1z92_normal_mot_01209686ea234b34325f918445e6eade_0001_af2_000000154_0001_18_33_H_._544ef0e38e907b7890d4414ebae48784_0001_1_0001_0000200004_0000001_0 (protein)
chain: TREELIEKLAELLGVPPEAVKRDLEALERLLGDPRRAVRNFLIALRQLGKLTPEVEELLEEIART

Some of the results follow.

The test deals with il2ra, P01589. Put plainly: yeast display titration.
As to B1, the “apparent Kd” value was “inactive: no binding seen”.
For B2 the value was “inactive: no binding seen”; for B3, “inactive: no binding seen”.
Take B4: the “apparent Kd” value is “inactive: no binding seen”.
In the case of B5 it was “inactive: no binding seen”; in that of B6, “inactive: no binding seen”.
For B7 the value was “inactive: no binding seen”.
In the case of B8 it was “inactive: no binding seen”; in that of B9, “inactive: no binding seen”.
With B10, the “apparent Kd” value was “inactive: no binding seen”.
For B11 the value was “inactive: no binding seen”; for B12, “inactive: no binding seen”.
For B13 the value was “inactive: no binding seen”.
In the case of B14 it was “inactive: no binding seen”.
For B15, the “apparent Kd” value is “inactive: no binding seen”.
On to B16, for which the “apparent Kd” value was “inactive: no binding seen”.
For B17 the value was “inactive: no binding seen”; for B18, “inactive: no binding seen”; for B19, “inactive: no binding seen”.

Source of the values: PMC10163288.
